Results as given in the supplement of paper PMC3334620.
Whole data set: some 33,000 sequences, median “E-score (-0.5 to 0.5)” near -0.0059, cut for the highest 2% near 0.26. The list shows a part of the results.

What follows are sequences tested against T1, Cin5 (UniProt P40917) (assay: PBM E-score (8-mer binding enrichment) (E-score (-0.5 to 0.5)); higher = stronger / more preferred TF binding). Conditions: protein concentration: 100 nM; construct: GST-full length.
T1 sequence: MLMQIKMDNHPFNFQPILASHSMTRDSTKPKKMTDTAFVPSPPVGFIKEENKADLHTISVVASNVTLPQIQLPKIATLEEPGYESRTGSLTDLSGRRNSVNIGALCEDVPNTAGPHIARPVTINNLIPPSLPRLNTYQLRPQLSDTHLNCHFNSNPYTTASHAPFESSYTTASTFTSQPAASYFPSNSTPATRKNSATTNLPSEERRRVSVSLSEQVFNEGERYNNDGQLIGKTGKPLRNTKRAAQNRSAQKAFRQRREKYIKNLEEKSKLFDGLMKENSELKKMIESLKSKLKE
In short: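 Each ungapped eight-base word and its reverse complement, pooled, received an E-score from the Universal PBM Analysis Suite. Underlying scans, normalised with masliner, recorded fluorescent anti-GST bound to GST-tagged yeast transcription factors. These were applied at about 100-200 nM to universal all-10-mer Agilent arrays double-stranded by primer extension.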
In the case of AGCGAGGG, the “PBM E-score” value is reported as -0.25.
For AGTGCGAC, the “PBM E-score” value was -0.0654.
CGAAAGAA was tested, and the “PBM E-score” value was 0.154.
TACATTAA was tested, and the “PBM E-score” value was 0.262.
For AGATTTAG, the “PBM E-score” value was 0.0923.
With CTCTTGTC the “PBM E-score” value was -0.0756.
ATGGCCAA was tested, and the “PBM E-score” value was -0.0287.
For GTGTAATA, the “PBM E-score” value was 0.193.
For GCGGGCCA, the “PBM E-score” value was -0.191.
In the case of ATCAAAGG, the “PBM E-score” value is reported as 0.133.
ATGAGACC was tested, and the “PBM E-score” value was 0.063.
With CAAGGGCA the “PBM E-score” value was -0.25.
With ACGCCATC the “PBM E-score” value was -0.0126.
For CCACCGAA, the “PBM E-score” value was -0.048.
With ATTCATGA the “PBM E-score” value was -0.00925.
With ACATGGTA the “PBM E-score” value was 0.0528.
In the case of AATTATCC, the “PBM E-score” value is reported as 0.133.
With CTAAGAAG the “PBM E-score” value was 0.00271.
In the case of CAAACCCA, the “PBM E-score” value is reported as 0.184.
In the case of GAGCGACC, the “PBM E-score” value is reported as -0.203.
CACTCCCG was tested, and the “PBM E-score” value was -0.0671.
For CGGACAAG, the “PBM E-score” value was 0.0785.
For AGTAAATC, the “PBM E-score” value was 0.171.
For GGATAAGA, the “PBM E-score” value was 0.115.
With AACACGCC the “PBM E-score” value was -0.00401.
AAGATTGA was tested, and the “PBM E-score” value was 0.205.
In the case of GAAATGTC, the “PBM E-score” value is reported as 0.0142.
GAATAGTA was tested, and the “PBM E-score” value was 0.219.
For CGTATCCA, the “PBM E-score” value was -0.00233.
In the case of ACGGACTC, the “PBM E-score” value is reported as -0.143.
In the case of GCAACCCC, the “PBM E-score” value is reported as -0.143.
For ACTGAGAA, the “PBM E-score” value was -0.0132.
In the case of ATGACGAG, the “PBM E-score” value is reported as -0.131.
In the case of ATAAATGG, the “PBM E-score” value is reported as 0.129.
CGGGATTA was tested, and the “PBM E-score” value was 0.294.
For ACATTTAT, the “PBM E-score” value was 0.161.
In the case of GCTCTTTA, the “PBM E-score” value is reported as -0.0278.
For CTCTCTGC, the “PBM E-score” value was 0.0296.
With ACCCACGT the “PBM E-score” value was 0.0347.
AAACGGTA was tested, and the “PBM E-score” value was 0.114.
ATCGTTGA was tested, and the “PBM E-score” value was 0.0692.
In the case of AGCATTAG, the “PBM E-score” value is reported as -0.0591.
For CACCTTAG, the “PBM E-score” value was -0.0475.
With ATCGTCAA the “PBM E-score” value was -0.0893.
AACATTGA was tested, and the “PBM E-score” value was 0.0511.
In the case of CCACTCGA, the “PBM E-score” value is reported as 0.00379.
With CGTGAGAA the “PBM E-score” value was -0.0477.
With CGTGGGCA the “PBM E-score” value was -0.25.
In the case of CGTATCGA, the “PBM E-score” value is reported as -0.123.
For CATGGCAC, the “PBM E-score” value was 0.00069.
For CGCGGGAC, the “PBM E-score” value was 0.16.
In the case of CACTTCCG, the “PBM E-score” value is reported as 0.104.
For AGGAATGA, the “PBM E-score” value was 0.0586.
In the case of GTGCGACA, the “PBM E-score” value is reported as -0.176.
In the case of AGTTAGTC, the “PBM E-score” value is reported as -0.0899.
ACGCAAGT was tested, and the “PBM E-score” value was -0.0764.
With CATGGTAA the “PBM E-score” value was 0.0768.
With AATTGCGC the “PBM E-score” value was 0.165.
In the case of ACGTATAC, the “PBM E-score” value is reported as 0.113.
For CTTTCCAC, the “PBM E-score” value was 0.0658.
For GGCTAGTA, the “PBM E-score” value was 0.0442.
For AGTTAGGA, the “PBM E-score” value was 0.00723.
For ACTTCCCG, the “PBM E-score” value was -0.0152.
With ACCCTCGT the “PBM E-score” value was -0.132.
CTGGAGTC was tested, and the “PBM E-score” value was -0.205.
In the case of CTCCAAGA, the “PBM E-score” value is reported as -0.00799.
With CTACCGAA the “PBM E-score” value was -0.0351.
For CGCCTAAC, the “PBM E-score” value was 0.0449.
For CAACAATA, the “PBM E-score” value was 0.155.
In the case of ACCCCCCT, the “PBM E-score” value is reported as -0.5.
For AGGATTCA, the “PBM E-score” value was -0.0694.
TACTGTCA was tested, and the “PBM E-score” value was 0.0969.
TAACAGGA was tested, and the “PBM E-score” value was 0.121.
In the case of AACGAGTG, the “PBM E-score” value is reported as -0.033.
For ATACTCCG, the “PBM E-score” value was 0.162.
With CACGCATC the “PBM E-score” value was -0.0589.
For GCCGATAC, the “PBM E-score” value was -0.136.
In the case of CGAAATGC, the “PBM E-score” value is reported as 0.165.
For GCTAGTGA, the “PBM E-score” value was 0.0843.
In the case of CCGGTTAG, the “PBM E-score” value is reported as -0.0145.
For ACCCTCAT, the “PBM E-score” value was -0.136.
AGTACCAC was tested, and the “PBM E-score” value was -0.0418.
With CGGCGCAG the “PBM E-score” value was -0.132.
For ATTTCGTA, the “PBM E-score” value was 0.177.
GGAGTTTA was tested, and the “PBM E-score” value was 0.0247.
For AACGTTCC, the “PBM E-score” value was -0.0257.
CTTGAGAA was tested, and the “PBM E-score” value was -0.125.
GCTGGGTA was tested, and the “PBM E-score” value was -0.0561.
In the case of ACTTATGG, the “PBM E-score” value is reported as 0.00867.
For CCATTGAG, the “PBM E-score” value was 0.00119.
In the case of AACAGTAT, the “PBM E-score” value is reported as 0.155.
In the case of AACTTCTC, the “PBM E-score” value is reported as -0.0605.
For CCGATTTC, the “PBM E-score” value was -0.0432.
With CCCCGCCC the “PBM E-score” value was 0.121.
ATACCAAA was tested, and the “PBM E-score” value was 0.0795.
With ATGCACTC the “PBM E-score” value was 0.0439.
In the case of ACAGATAG, the “PBM E-score” value is reported as -0.0585.
With TACTATGA the “PBM E-score” value was 0.25.
For AGTCGGAC, the “PBM E-score” value was -0.191.
For ATTTATTG, the “PBM E-score” value was 0.0876.
ATACCGCG was tested, and the “PBM E-score” value was 0.0963.
ATAGAAAG was tested, and the “PBM E-score” value was 0.024.
GTTGGACA was tested, and the “PBM E-score” value was -0.13.
For GAGCGCTC, the “PBM E-score” value was -0.101.
In the case of AACGGCAG, the “PBM E-score” value is reported as 0.0364.
AAGTAAGT was tested, and the “PBM E-score” value was 0.0737.
For ACTTATAC, the “PBM E-score” value was 0.122.
In the case of ATTGTGTC, the “PBM E-score” value is reported as 0.0997.
In the case of CAATTCTC, the “PBM E-score” value is reported as -0.0536.
For GATCTCGC, the “PBM E-score” value was 0.0459.
With CAAGTTGA the “PBM E-score” value was 0.107.
GACCATCA was tested, and the “PBM E-score” value was 0.0463.
In the case of CTGCCGCC, the “PBM E-score” value is reported as -0.348.
GTTGCCTA was tested, and the “PBM E-score” value was 0.0737.
AAAGTTAA was tested, and the “PBM E-score” value was 0.158.
In the case of CCAAAAGA, the “PBM E-score” value is reported as 0.1.
GGGTATGA was tested, and the “PBM E-score” value was 0.144.
In the case of AGGCGAGC, the “PBM E-score” value is reported as -0.138.
CACCGACG was tested, and the “PBM E-score” value was -0.147.
For GTTAGCAA, the “PBM E-score” value was 0.15.
CCCATAAG was tested, and the “PBM E-score” value was 0.143.
In the case of AGCCTCCT, the “PBM E-score” value is reported as -0.176.
For ACCCTAGG, the “PBM E-score” value was -0.233.
In the case of AATGGCTA, the “PBM E-score” value is reported as 0.274.
With CAACGCAA the “PBM E-score” value was -0.0265.
In the case of GGCGAACA, the “PBM E-score” value is reported as -0.095.
ACATGGGG was tested, and the “PBM E-score” value was 0.0291.
With GCTAACAC the “PBM E-score” value was -0.0779.
With CCCGGCGG the “PBM E-score” value was -0.00032.
With CGTCGTCC the “PBM E-score” value was -0.115.
In the case of AAATGAGC, the “PBM E-score” value is reported as 0.043.
With ATATCCAC the “PBM E-score” value was 0.152.
For CGTACCTC, the “PBM E-score” value was -0.219.
With AGGCGTAT the “PBM E-score” value was 0.211.
ATTCGGCG was tested, and the “PBM E-score” value was -0.0854.
In the case of AAATCAGC, the “PBM E-score” value is reported as 0.235.
With GAACAATC the “PBM E-score” value was 0.0732.
For CTTCGCCC, the “PBM E-score” value was -0.189.
In the case of CATGCAGG, the “PBM E-score” value is reported as -0.0612.
AGTGATGC was tested, and the “PBM E-score” value was -0.0358.
For GTTGAATA, the “PBM E-score” value was 0.194.
In the case of AGATACAC, the “PBM E-score” value is reported as 0.217.
ACCGGGCT was tested, and the “PBM E-score” value was -0.197.
In the case of GCCGATCA, the “PBM E-score” value is reported as 0.00909.
With GATTCGAA the “PBM E-score” value was 0.204.
With ACTAATTA the “PBM E-score” value was 0.228.
In the case of CACCATCC, the “PBM E-score” value is reported as -0.131.
CATCACAC was tested, and the “PBM E-score” value was 0.0753.
For AGATTGCT, the “PBM E-score” value was 0.0412.
In the case of ATAGACAC, the “PBM E-score” value is reported as -0.0664.
With TGGACCAA the “PBM E-score” value was -0.0345.
In the case of AGTTCCTC, the “PBM E-score” value is reported as -0.161.
For CCAACCGG, the “PBM E-score” value was -0.0807.
CACAAATG was tested, and the “PBM E-score” value was -0.00062.
ACTAGACG was tested, and the “PBM E-score” value was 0.0288.
With GTACGGCA the “PBM E-score” value was 0.0516.
In the case of GCGGACCC, the “PBM E-score” value is reported as -0.2.
CAACGGAA was tested, and the “PBM E-score” value was 0.103.
For AAGAAGTA, the “PBM E-score” value was 0.0746.
For AAGATACA, the “PBM E-score” value was 0.23.
For ATATGGGG, the “PBM E-score” value was 0.103.
In the case of AGAGAGCG, the “PBM E-score” value is reported as -0.132.
CACCAAGC was tested, and the “PBM E-score” value was -0.0799.
CAGTCCCC was tested, and the “PBM E-score” value was -0.346.
With ATGGGGGC the “PBM E-score” value was -0.403.
For GGTCTGTA, the “PBM E-score” value was 0.0429.
For GTCACGGA, the “PBM E-score” value was 0.0312.
With CAGATTGG the “PBM E-score” value was -0.0594.
ATATGAAC was tested, and the “PBM E-score” value was 0.132.
For ACCGGCAT, the “PBM E-score” value was 0.14.
With CCAGTGAC the “PBM E-score” value was -0.211.
In the case of AAGGCGAA, the “PBM E-score” value is reported as -0.0742.
